From publication PMC9303283
Results are given in words; binding and its absence hold for the method and conditions named. In cells and extracts the contact can be indirect. Binding can be weak; no strength is given. Sequences can lack the tags named with a protein.

How the values were obtained:
[1] = target: HA-NF90 (ILF3 isoform NF90) (human (ORF amplified from HEK293T cells)); assay: co-IP; HA-NF90 and Flag-tagged factor co-expressed in HEK293T with ectopic mir-144/451 (WT144) or loop mutant (144LM); lysis in 50 mM Tris-HCl pH 7.4, 150 mM NaCl, 1 mM EDTA, 1% Triton X-100; anti-HA magnetic beads, room temperature 2 h; Western blot
[2] = target: HA-NF90 (ILF3 isoform NF90) (human (ORF amplified from HEK293T cells)); assay: co-IP; as the HA-NF90 co-IP, IP products treated with 100 U/ml RNase T1 and 40 ug/ml RNase A at 37 C for 20 min, then washed four times with TBS; Western blot

| binding [1] | binding [2] | Binder |
| --- | --- | --- |
| no binding |  | Flag-Drosha (enzyme, UniProt Q9NRR4 1-1374) MMQGNTCHRMSFHPGRGCPRGRGGHGARPSAPSFRPQNLRLLHPQQPPVQYQYEPPSAPSTTFSNSPAPNFLPPRPDFVPFPPPMPPSAQGPLPPCPIRPPFPNHQMRHPFPVPPCFPPMPPPMPCPNNPPVPGAPPGQGTFPFMMPPPSMPHPPPPPVMPQQVNYQYPPGYSHHNFPPPSFNSFQNNPSSFLPSANNSSSPHFRHLPPYPLPKAPSERRSPERLKHYDDHRHRDHSHGRGERHRSLDRRERGRSPDRRRQDSRYRSDYDRGRTPSRHRSYERSRERERERHRHRDNRRSPSLERSYKKEYKRSGRSYGLSVVPEPAGCTPELPGEIIKNTDSWAPPLEIVNHRSPSREKKRARWEEEKDRWSDNQSSGKDKNYTSIKEKEPEETMPDKNEEEEEELLKPVWIRCTHSENYYSSDPMDQVGDSTVVGTSRLRDLYDKFEEELGSRQEKAKAARPPWEPPKTKLDEDLESSSESECESDEDSTCSSSSDSEVFDVIAEIKRKKAHPDRLHDELWYNDPGQMNDGPLCKCSAKARRTGIRHSIYPGEEAIKPCRPMTNNAGRLFHYRITVSPPTNFLTDRPTVIEYDDHEYIFEGFSMFAHAPLTNIPLCKVIRFNIDYTIHFIEEMMPENFCVKGLELFSLFLFRDILELYDWNLKGPLFEDSPPCCPRFHFMPRFVRFLPDGGKEVLSMHQILLYLLRCSKALVPEEEIANMLQWEELEWQKYAEECKGMIVTNPGTKPSSVRIDQLDREQFNPDVITFPIIVHFGIRPAQLSYAGDPQYQKLWKSYVKLRHLLANSPKVKQTDKQKLAQREEALQKIRQKNTMRREVTVELSSQGFWKTGIRSDVCQHAMMLPVLTHHIRYHQCLMHLDKLIGYTFQDRCLLQLAMTHPSHHLNFGMNPDHARNSLSNCGIRQPKYGDRKVHHMHMRKKGINTLINIMSRLGQDDPTPSRINHNERLEFLGDAVVEFLTSVHLYYLFPSLEEGGLATYRTAIVQNQHLAMLAKKLELDRFMLYAHGPDLCRESDLRHAMANCFEALIGAVYLEGSLEEAKQLFGRLLFNDPDLREVWLNYPLHPLQLQEPNTDRQLIETSPVLQKLTEFEEAIGVIFTHVRLLARAFTLRTVGFNHLTLGHNQRMEFLGDSIMQLVATEYLFIHFPDHHEGHLTLLRSSLVNNRTQAKVAEELGMQEYAITNDKTKRPVALRTKTLADLLESFIAALYIDKDLEYVHTFMNVCFFPRLKEFILNQDWNDPKSQLQQCCLTLRTEGKEPDIPLYKTLQTVGPSHARTYTVAVYFKGERIGCGKGPSIQQAEMGAAMDALEKYNFPQMAHQKRFIERKYRQELKEMRWEREHQEREPDETEDIKK |
| binds | binds | Flag-TRBP (protein, UniProt Q15633 1-366) MSEEEQGSGTTTGCGLPSIEQMLAANPGKTPISLLQEYGTRIGKTPVYDLLKAEGQAHQPNFTFRVTVGDTSCTGQGPSKKAAKHKAAEVALKHLKGGSMLEPALEDSSSFSPLDSSLPEDIPVFTAAAAATPVPSVVLTRSPPMELQPPVSPQQSECNPVGALQELVVQKGWRLPEYTVTQESGPAHRKEFTMTCRVERFIEIGSGTSKKLAKRNAAAKMLLRVHTVPLDARDGNEVEPDDDHFSIGVGSRLDGLRNRGPGCTWDSLRNSVGEKILSLRSCSLGSLGALGPACCRVLSELSEEQAFHVSYLDIEELSLSGLCQCLVELSTQPATVCHGSATTREAARGEAARRALQYLKIMAGSK |
| binds weakly |  | Flag-DGCR8 (protein, UniProt Q8WYQ5 1-773) METDESPSPLPCGPAGEAVMESRARPFQALPREQSPPPPLQTSSGAEVMDVGSGGDGQSELPAEDPFNFYGASLLSKGSFSKGRLLIDPNCSGHSPRTARHAPAVRKFSPDLKLLKDVKISVSFTESCRSKDRKVLYTGAERDVRAECGLLLSPVSGDVHACPFGGSVGDGVGIGGESADKKDEENELDQEKRVEYAVLDELEDFTDNLELDEEGAGGFTAKAIVQRDRVDEEALNFPYEDDFDNDVDALLEEGLCAPKKRRTEEKYGGDSDHPSDGETSVQPMMTKIKTVLKSRGRPPTEPLPDGWIMTFHNSGVPVYLHRESRVVTWSRPYFLGTGSIRKHDPPLSSIPCLHYKKMKDNEEREQSSDLTPSGDVSPVKPLSRSAELEFPLDEPDSMGADPGPPDEKDPLGAEAAPGALGQVKAKVEVCKDESVDLEEFRSYLEKRFDFEQVTVKKFRTWAERRQFNREMKRKQAESERPILPANQKLITLSVQDAPTKKEFVINPNGKSEVCILHEYMQRVLKVRPVYNFFECENPSEPFGASVTIDGVTYGSGTASSKKLAKNKAARATLEILIPDFVKQTSEEKPKDSEELEYFNHISIEDSRVYELTSKAGLLSPYQILHECLKRNHGMGDTSIKFEVVPGKNQKSEYVMACGKHTVRGWCKNKRVGKQLASQKILQLLHPHVKNWGSLLRMYGRESSKMVKQETSDKSVIELQQYAKKNKPNLHILSKLQEEMKRLAEEREETRKKPKMSIVASAQPGGEPLCTVDV |
